Data source: PubChem BioAssay AID1259424 (University of Nebraska Medical Center, 2018)
The deposit covers about 14,000 reagents; below is a random part of them. 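Higher correlation or smaller distance means closer resemblance to KSR1 loss; control wells, including KSR1 knockdowns, recur on many plates.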 Further read-outs or replicates are left out here. The record does not give: the time to read-out.

Screen: 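Find knockdowns that reproduce the expression shifts seen after KSR1 loss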 (primary screen)
Cell system: human HCT116 colon cancer cells
Knock-down reagent: siRNA pool against human genes, 50 nM
Measurement: 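Log2 levels of six mRNAs (branched-DNA multiplex), adjusted by two reference genes and the non-targeting median, then scored against the average KSR1 knockdown pattern as Pearson r and euclidean distance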
Reading the numbers: mean correlation with KSR1 profile: higher = expression change more like KSR1 knockdown

gene knocked down	mean correlation with KSR1 profile
ZNF70 (GeneID 7621)	0.253
ARID4A (GeneID 5926)	0.627
ARHGAP19 (GeneID 84986)	0.442
AIPL1 (GeneID 23746)	0.411
TEX12 (GeneID 56158)	0.17
VSIG10 (GeneID 54621)	-0.0849
TREX2 (GeneID 11219)	-0.106
TBC1D19 (GeneID 55296)	-0.804
SUV39H2 (GeneID 79723)	-0.0572
TNFSF11 (GeneID 8600)	0.151
SLC6A6 (GeneID 6533)	-0.287
ARHGAP10 (GeneID 79658)	0.868
PWWP3A (GeneID 84939)	0.479
ANO8 (GeneID 57719)	-0.585
NUP153 (GeneID 9972)	-0.513
WNT3A (GeneID 89780)	-0.239
TULP3 (GeneID 7289)	-0.413
ATP6V1C1 (GeneID 528)	0.0202
CYP3A4 (GeneID 1576)	0.00412
PRDM4 (GeneID 11108)	0.362
